Data: the supplement of paper PMC8728848
The other results are listed elsewhere or left out.

Assays:
Test in all cases: glycan array binding signal (z-score within array); higher = stronger binding
Conditions in all cases: glycan notation: IUPAC condensed, linker removed
[1] = biological target: GlcNAc(b1-3)Gal(b1-3)GalNAc
Method in brief: (§1)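 The Consortium for Functional Glycomics database supplied 3228 glycan arrays, of which those lacking an available protein sequence were dropped. The binding signal, a within-array Z-score, was averaged across arrays of the same protein sequence and across linkers. Negative scores can be read as non-binding.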

GlcNAc(b1-3)Gal(b1-4)Glc = biological target: GlcNAc(b1-3)Gal(b1-4)Glc
Method in brief: as §1

[2] = biological target: GlcNAc(b1-3)Gal(b1-4)GlcNAc
Method in brief: as §1

[3] = biological target: GlcNAc(b1-3)Gal(b1-4)GlcNAc(b1-2)Man(a1-3)[GlcNAc(b1-3)Gal(b1-4)GlcNAc(b1-2)Man(a1-6)]Man(b1-4)GlcNAc(b1-4)GlcNAc
Method in brief: as §1

[4] = biological target: GlcNAc(b1-3)Gal(b1-4)GlcNAc(b1-2)Man(a1-3)[GlcNAc(b1-3)Gal(b1-4)GlcNAc(b1-2)Man(a1-6)]Man(b1-4)GlcNAc(b1-4)[Fuc(a1-6)]GlcNAc
Method in brief: as §1

[5] = biological target: GlcNAc(b1-3)Gal(b1-4)GlcNAc(b1-2)[GlcNAc(b1-3)Gal(b1-4)GlcNAc(b1-6)]Man(a1-6)[GlcNAc(b1-3)Gal(b1-4)GlcNAc(b1-2)Man(a1-3)]Man(b1-4)GlcNAc(b1-4)GlcNAc
Method in brief: as §1

[6] = biological target: GlcNAc(b1-3)Gal(b1-4)GlcNAc(b1-3)Gal(b1-4)GlcNAc
Method in brief: as §1

[7] = biological target: GlcNAc(b1-3)Gal(b1-4)GlcNAc(b1-3)Gal(b1-4)GlcNAc(b1-2)Man(a1-3)[GlcNAc(b1-3)Gal(b1-4)GlcNAc(b1-3)Gal(b1-4)GlcNAc(b1-2)Man(a1-6)]Man(b1-4)GlcNAc(b1-4)GlcNAc
Method in brief: as §1

[8] = biological target: GlcNAc(b1-3)Gal(b1-4)GlcNAc(b1-3)Gal(b1-4)GlcNAc(b1-2)Man(a1-3)[GlcNAc(b1-3)Gal(b1-4)GlcNAc(b1-3)Gal(b1-4)GlcNAc(b1-2)Man(a1-6)]Man(b1-4)GlcNAc(b1-4)[Fuc(a1-6)]GlcNAc
Method in brief: as §1

[9] = biological target: GlcNAc(b1-3)Gal(b1-4)GlcNAc(b1-3)Gal(b1-4)GlcNAc(b1-2)[GlcNAc(b1-3)Gal(b1-4)GlcNAc(b1-3)Gal(b1-4)GlcNAc(b1-6)]Man(a1-6)[GlcNAc(b1-3)Gal(b1-4)GlcNAc(b1-3)Gal(b1-4)GlcNAc(b1-2)Man(a1-3)]Man(b1-4)GlcNAc(b1-4)[Fuc(a1-6)]GlcNAc
Method in brief: as §1

[10] = biological target: GlcNAc(b1-3)Gal(b1-4)GlcNAc(b1-3)Gal(b1-4)GlcNAc(b1-3)Gal(b1-4)GlcNAc(b1-2)Man(a1-3)[GlcNAc(b1-3)Gal(b1-4)GlcNAc(b1-3)Gal(b1-4)GlcNAc(b1-3)Gal(b1-4)GlcNAc(b1-2)Man(a1-6)]Man(b1-4)GlcNAc(b1-4)GlcNAc
Method in brief: as §1

[11] = biological target: GlcNAc(b1-3)Gal(b1-4)GlcNAc(b1-3)Gal(b1-4)GlcNAc(b1-3)Gal(b1-4)GlcNAc(b1-2)Man(a1-3)[GlcNAc(b1-3)Gal(b1-4)GlcNAc(b1-3)Gal(b1-4)GlcNAc(b1-3)Gal(b1-4)GlcNAc(b1-2)Man(a1-6)]Man(b1-4)GlcNAc(b1-4)[Fuc(a1-6)]GlcNAc
Method in brief: as §1

[12] = biological target: GlcNAc(b1-3)Gal(b1-4)GlcNAc(b1-3)Gal(b1-4)GlcNAc(b1-3)Gal(b1-4)GlcNAc(b1-2)[GlcNAc(b1-3)Gal(b1-4)GlcNAc(b1-3)Gal(b1-4)GlcNAc(b1-3)Gal(b1-4)GlcNAc(b1-6)]Man(a1-6)[GlcNAc(b1-3)Gal(b1-4)GlcNAc(b1-3)Gal(b1-4)GlcNAc(b1-3)Gal(b1-4)GlcNAc(b1-2)Man(a1-3)]Man(b1-4)GlcNAc(b1-4)[Fuc(a1-6)]GlcNAc
Method in brief: as §1

[13] = biological target: GlcNAc(b1-3)Gal(b1-4)GlcNAc(b1-3)Gal(b1-4)GlcNAc(b1-3)Gal(b1-4)GlcNAc(b1-3)Gal(b1-4)GlcNAc(b1-2)Man(a1-3)[GlcNAc(b1-3)Gal(b1-4)GlcNAc(b1-3)Gal(b1-4)GlcNAc(b1-3)Gal(b1-4)GlcNAc(b1-3)Gal(b1-4)GlcNAc(b1-2)Man(a1-6)]Man(b1-4)GlcNAc(b1-4)GlcNAc
Method in brief: as §1

[14] = biological target: GlcNAc(b1-3)Gal(b1-4)GlcNAc(b1-3)Gal(b1-4)GlcNAc(b1-3)Gal(b1-4)GlcNAc(b1-3)Gal(b1-4)GlcNAc(b1-2)Man(a1-3)[GlcNAc(b1-3)Gal(b1-4)GlcNAc(b1-3)Gal(b1-4)GlcNAc(b1-3)Gal(b1-4)GlcNAc(b1-3)Gal(b1-4)GlcNAc(b1-2)Man(a1-6)]Man(b1-4)GlcNAc(b1-4)[Fuc(a1-6)]GlcNAc
Method in brief: as §1

[15] = biological target: GlcNAc(b1-3)Gal(b1-4)GlcNAc(b1-3)Gal(b1-4)GlcNAc(b1-3)Gal(b1-4)GlcNAc(b1-3)Gal(b1-4)GlcNAc(b1-2)[GlcNAc(b1-3)Gal(b1-4)GlcNAc(b1-3)Gal(b1-4)GlcNAc(b1-3)Gal(b1-4)GlcNAc(b1-3)Gal(b1-4)GlcNAc(b1-6)]Man(a1-6)[GlcNAc(b1-3)Gal(b1-4)GlcNAc(b1-3)Gal(b1-4)GlcNAc(b1-3)Gal(b1-4)GlcNAc(b1-3)Gal(b1-4)GlcNAc(b1-2)Man(a1-3)]Man(b1-4)GlcNAc(b1-4)[Fuc(a1-6)]GlcNAc
Method in brief: as §1

[16] = biological target: GlcNAc(b1-3)Gal(b1-4)GlcNAc(b1-3)Gal(b1-4)GlcNAc(b1-3)GalNAc
Method in brief: as §1

[17] = biological target: GlcNAc(b1-3)Gal(b1-4)GlcNAc(b1-3)GalNAc
Method in brief: as §1

[18] = biological target: GlcNAc(b1-3)Gal(b1-4)GlcNAc(b1-3)[GlcNAc(b1-3)Gal(b1-4)GlcNAc(b1-3)]GalNAc
Method in brief: as §1

[19] = biological target: GlcNAc(b1-3)Gal(b1-4)GlcNAc(b1-6)[Gal(b1-3)]GalNAc
Method in brief: as §1

[20] = biological target: GlcNAc(b1-3)Gal(b1-4)GlcNAc(b1-6)[GlcNAc(b1-3)Gal(b1-3)]GalNAc
Method in brief: as §1

[21] = biological target: GlcNAc(b1-3)Gal(b1-4)GlcNAc(b1-6)[GlcNAc(b1-3)]Gal(b1-4)GlcNAc
Method in brief: as §1

GlcNAc(b1-3)GalNAc = biological target: GlcNAc(b1-3)GalNAc
Method in brief: as §1

GlcNAc(b1-3)Man = biological target: GlcNAc(b1-3)Man
Method in brief: as §1

[22] = biological target: GlcNAc(b1-3)[GlcNAc(b1-4)][GlcNAc(b1-6)]GlcNAc
Method in brief: as §1

[23] = biological target: GlcNAc(b1-3)[GlcNAc(b1-6)]Gal(b1-4)GlcNAc
Method in brief: as §1

[24] = biological target: GlcNAc(b1-3)[GlcNAc(b1-6)]GalNAc
Method in brief: as §1

[25] = biological target: GlcNAc(b1-4)Gal(b1-4)GlcNAc
Method in brief: as §1

GlcNAc(b1-4)GlcNAc = biological target: GlcNAc(b1-4)GlcNAc
Method in brief: as §1

[26] = biological target: GlcNAc(b1-4)GlcNAc(b1-4)GlcNAc
Method in brief: as §1

[27] = biological target: GlcNAc(b1-4)GlcNAc(b1-4)GlcNAc(b1-4)GlcNAc(b1-4)GlcNAc
Method in brief: as §1

[28] = biological target: GlcNAc(b1-4)GlcNAc(b1-4)GlcNAc(b1-4)GlcNAc(b1-4)GlcNAc(b1-4)GlcNAc
Method in brief: as §1

[29] = biological target: GlcNAc(b1-4)[GlcNAc(b1-6)]GalNAc
Method in brief: as §1

[30] = biological target: GlcNAc(b1-6)Gal(b1-4)GlcNAc
Method in brief: as §1

GlcNAc(b1-6)GalNAc = biological target: GlcNAc(b1-6)GalNAc
Method in brief: as §1

[31] = biological target: GlcNAc6S(b1-3)Gal(b1-4)GlcNAc
Method in brief: as §1

Kdn(a2-3)Gal(b1-3)GalNAc = biological target: Kdn(a2-3)Gal(b1-3)GalNAc
Method in brief: as §1

Kdn(a2-3)Gal(b1-3)GlcNAc = biological target: Kdn(a2-3)Gal(b1-3)GlcNAc
Method in brief: as §1

Kdn(a2-3)Gal(b1-4)Glc = biological target: Kdn(a2-3)Gal(b1-4)Glc
Method in brief: as §1

Kdn(a2-3)Gal(b1-4)GlcNAc = biological target: Kdn(a2-3)Gal(b1-4)GlcNAc
Method in brief: as §1

[32] = biological target: Kdn(a2-3)Gal(b1-4)[Fuc(a1-3)]GlcNAc
Method in brief: as §1

Kdn(a2-6)Gal(b1-4)GlcNAc = biological target: Kdn(a2-6)Gal(b1-4)GlcNAc
Method in brief: as §1

[33] = biological target: Man(a1-2)Man(a1-2)Man(a1-3)Man
Method in brief: as §1

[34] = biological target: Man(a1-2)Man(a1-2)Man(a1-6)[Man(a1-3)]Man
Method in brief: as §1

Man(a1-2)Man(a1-3)Man = biological target: Man(a1-2)Man(a1-3)Man
Method in brief: as §1

B1: Epa19 (Candida glabrata) (protein)
chain: MGSSHHHHHHSSGLVPRGSHMASSKDPTRFPIGCSPQVLKTQPGLAVKLYSYGHPVPGCSYITYQYPDFPRSGYKKERKLADITGVNGKIDIDLKPNDPCRVLTGHLPSNYNYPDTLTYTNFTMILYGYFQPKVTGYHTFNLEADDLLFMNLGAGNAFDCCKAESTLDNFGNYQSYSLWGSDYAKANITVFLVSGVYYPIRLFYVNRDNNAVIDFSFTTEFDKEKVHDFTSYFFSASDGEQCPGSV
- glycan array binding signal (z-score) [1]: -0.152
- glycan array binding signal (z-score) (GlcNAc(b1-3)Gal(b1-4)Glc): -0.077
- glycan array binding signal (z-score) [2]: -0.29
- glycan array binding signal (z-score) [3]: -0.192
- glycan array binding signal (z-score) [4]: -0.291
- glycan array binding signal (z-score) [5]: -0.051
- glycan array binding signal (z-score) [6]: -0.681
- glycan array binding signal (z-score) [7]: 0.941
- glycan array binding signal (z-score) [8]: 0.598
- glycan array binding signal (z-score) [9]: 3.06
- glycan array binding signal (z-score) [10]: 0.398
- glycan array binding signal (z-score) [11]: 1.33
- glycan array binding signal (z-score) [12]: 2.24
- glycan array binding signal (z-score) [13]: 0.357
- glycan array binding signal (z-score) [14]: 0.417
- glycan array binding signal (z-score) [15]: 2.39
- glycan array binding signal (z-score) [16]: 0.479
- glycan array binding signal (z-score) [17]: 0.994
- glycan array binding signal (z-score) [18]: 0.409
- glycan array binding signal (z-score) [19]: -0.085
- glycan array binding signal (z-score) [20]: -0.077
- glycan array binding signal (z-score) [21]: -0.237
- glycan array binding signal (z-score) (GlcNAc(b1-3)GalNAc): -0.915
- glycan array binding signal (z-score) (GlcNAc(b1-3)Man): 0.124
- glycan array binding signal (z-score) [22]: -0.599
- glycan array binding signal (z-score) [23]: -0.086
- glycan array binding signal (z-score) [24]: -0.568
- glycan array binding signal (z-score) [25]: -0.432
- glycan array binding signal (z-score) (GlcNAc(b1-4)GlcNAc): -0.042
- glycan array binding signal (z-score) [26]: -0.295
- glycan array binding signal (z-score) [27]: 0.233
- glycan array binding signal (z-score) [28]: -0.594
- glycan array binding signal (z-score) [29]: -0.556
- glycan array binding signal (z-score) [30]: 0.368
- glycan array binding signal (z-score) (GlcNAc(b1-6)GalNAc): 0.011
- glycan array binding signal (z-score) [31]: 0.237
- glycan array binding signal (z-score) (Kdn(a2-3)Gal(b1-3)GalNAc): 0.843
- glycan array binding signal (z-score) (Kdn(a2-3)Gal(b1-3)GlcNAc): 0.692
- glycan array binding signal (z-score) (Kdn(a2-3)Gal(b1-4)Glc): -0.214
- glycan array binding signal (z-score) (Kdn(a2-3)Gal(b1-4)GlcNAc): -0.465
- glycan array binding signal (z-score) [32]: -0.281
- glycan array binding signal (z-score) (Kdn(a2-6)Gal(b1-4)GlcNAc): -0.099
- glycan array binding signal (z-score) [33]: -0.225
- glycan array binding signal (z-score) [34]: -0.611
- glycan array binding signal (z-score) (Man(a1-2)Man(a1-3)Man): -0.901
